Results from publication PMC11134387, “Cancer-Stem-Cell Phenotype-Guided Discovery of a Microbiota-Inspired Synthetic Compound Targeting NPM1 for Leukemia” (JACS Au, 2024).

Tested on: CD34+ cells from healthy donors
Experiment: 1D-nano LC ESI-MSMS proteomic analysis of CD34+ cells
Type: cell-based, Homo sapiens

## COc1ccc(C2Cc3[nH]c4ccccc4c3C(CCNCC3CC3)C2N)cc1 (centres unmarked) [4b, 4-{2-[(Cyclopropylmethyl)amino]ethyl}-2-(4-methoxyphenyl)-2,3,4,9-tetrahydro-1H-carbazol-3-amine]
CD34+ cells, 5 μM, 24 h
  Number of proteins that disappeared completely after treatment: 340
DMSO vs SL369
  F/C P11413-2¦G6PD_HUMAN: PRESEN/AUSEN
  F/C P11413¦G6PD_HUMAN: PRESEN/AUSEN
  F/C P22392¦NDKB_HUMAN: PRESEN/AUSEN
  F/C Q14980-2¦NUMA1_HUMAN: PRESEN/AUSEN
